The values below come from PMC6941357, “An in vitro toolbox to accelerate anti-malarial drug discovery and development” (Malaria Journal, 2020).

Not every entry of the source has a single result; some have several. Only these are listed. There may be further records. Results that share an entry differ, and nothing given here explains why; they may come from other doses, times, organisms or constructs than stated.

One series relates to Caco-2 cell monolayers. Description: Bidirectional permeability across Caco-2 cell monolayers. The settings on record: matrix: pH 7.4 buffer.
The next series relates to human plasma. The series can be described thus: Plasma protein binding via rapid equilibrium dialysis (RED), 10% plasma. Format: in vitro ADME. The settings on record: 10% plasma corrected for dilution, presaturation of device and 24 h dialysis. A general note: In equilibrium dialysis free small molecules cross a membrane that holds back macromolecules.
The conditions of series [1]: basic pKa (B); cited from earlier work.

Consider `CCc1nc(N)nc(N)c1OCCCOc1ccccc1CCC(=O)O.Cl` [P218], for which the “A–B Papp” value with Caco-2 cell monolayers was < 5 10^−6 cm/s and 0.71 ± 0.04 10^−6 cm/s. Consider `CC(C)(C)NCc1cc(C(C)(C)C)cc(-c2cnc(C(F)(F)F)c(F)c2)c1O` [JPC3210], for which, in the series on human plasma, the Fraction unbound, human plasma was 0.002 and 0.0028 ± 0.0002. Take `O=C(NCCN1CCCC1)c1cc(-c2ccc(CN3CCOCC3)cc2)nc2ccc(F)cc12` [M5717]: the Measured pKa in series [1] is 8.7 and 6.8.
